In article PMC12271312 one finds binding data, which are given here for one substance.

Protein sequences, listed by entry. Tags and fused reporters are not part of them.
UniProt Q00613: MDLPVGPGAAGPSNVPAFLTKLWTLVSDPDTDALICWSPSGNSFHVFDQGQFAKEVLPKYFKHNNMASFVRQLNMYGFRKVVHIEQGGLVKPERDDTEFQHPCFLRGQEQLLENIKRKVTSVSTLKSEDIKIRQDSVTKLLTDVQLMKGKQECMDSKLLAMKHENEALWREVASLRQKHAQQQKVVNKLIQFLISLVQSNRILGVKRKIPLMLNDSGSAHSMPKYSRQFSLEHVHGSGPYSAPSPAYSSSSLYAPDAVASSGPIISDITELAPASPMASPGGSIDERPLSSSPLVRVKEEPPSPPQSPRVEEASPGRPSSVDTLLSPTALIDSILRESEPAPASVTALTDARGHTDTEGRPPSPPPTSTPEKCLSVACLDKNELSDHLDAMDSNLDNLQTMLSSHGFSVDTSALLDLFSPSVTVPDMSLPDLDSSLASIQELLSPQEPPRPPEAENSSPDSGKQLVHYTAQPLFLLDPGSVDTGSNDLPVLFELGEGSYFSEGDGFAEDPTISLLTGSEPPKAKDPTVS
UniProt O14744: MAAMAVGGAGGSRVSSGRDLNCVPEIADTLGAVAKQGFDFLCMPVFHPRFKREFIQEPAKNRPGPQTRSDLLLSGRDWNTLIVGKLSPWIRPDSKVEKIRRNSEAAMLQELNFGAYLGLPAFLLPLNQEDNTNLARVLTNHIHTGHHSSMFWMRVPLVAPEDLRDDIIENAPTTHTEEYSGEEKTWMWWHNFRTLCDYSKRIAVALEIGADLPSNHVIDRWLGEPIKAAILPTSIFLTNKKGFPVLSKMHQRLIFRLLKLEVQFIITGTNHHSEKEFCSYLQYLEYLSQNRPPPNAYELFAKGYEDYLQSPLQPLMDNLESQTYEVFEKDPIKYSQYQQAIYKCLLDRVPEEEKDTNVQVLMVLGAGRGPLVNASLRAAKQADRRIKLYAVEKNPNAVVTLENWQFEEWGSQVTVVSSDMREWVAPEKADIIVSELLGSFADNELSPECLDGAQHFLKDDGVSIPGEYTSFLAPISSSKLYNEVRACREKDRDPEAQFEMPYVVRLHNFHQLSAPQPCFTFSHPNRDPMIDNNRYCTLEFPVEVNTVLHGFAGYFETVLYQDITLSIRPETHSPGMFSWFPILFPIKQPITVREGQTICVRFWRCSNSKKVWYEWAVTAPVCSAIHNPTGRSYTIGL

These are yes or no findings as the source states them, for the method shown. In cells and extracts the contact can be indirect. Some entries that bind do so weakly or less than the wild type.

The assay addresses Heat shock factor 1 (human (endogenous in SU-DHL-2, SU-DHL-4, SU-DHL-6)) (UniProt Q00613). Kind of assay: co-IP; nuclear extracts of wild-type SU-DHL-2, SU-DHL-4 and SU-DHL-6 cells incubated with anti-HSF1, anti-PRMT5 or control IgG at 4 °C overnight, A/G magnetic beads at 25 °C for 2 h; western blotting. A general note: Immunoblotting shows a protein as a band on a membrane.

As for “protein arginine methyltransferase 5 (from UniProt O14744 1-637) (enzyme)”, the binding entry is on record as “binds”.
